± gives the standard deviation. The list shows a part of the results, in another mix than the full data. The uncertainty is large for many entries.

The test system of the assay is MIWI (PIWIL1) piRISC loaded with Kctd7 piRNA (30 nt). In words: pre-steady-state target cleavage rate (min^-1); MIWI and MILI are mouse PIWI proteins and EfPiwi is from a freshwater sponge; tags in brackets are library labels; higher = faster piRNA-guided slicing of the target. The settings on record: guide: Kctd7 piRNA 5'p-UGUUAAUCUCUCAGAGAAGGUGACAGUGAU; auxiliary factor: 500 nM mouse GTSF1. An outline of the steps:
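In Cleave-'n-Seq, a transcribed, DNA-blocked target RNA library (0.1 nM) was combined with 1 nM active affinity-purified piRISC bearing one synthetic guide, with or without 500 nM GTSF1 partner protein. Reactions ran in HEPES–potassium acetate buffer at 33 °C for 0–8 or 0–960 min. Uncleaved targets were sequenced and normalised to depth and to weakly complementary targets, three trials were pooled, and k3 was capped at 0.0001 min^-1. The pre-steady-state cleavage rate was obtained by fitting a burst-and-steady-state model.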
Turning to AUCACUGUCACCUUCUCCUGAGAGAUUAACA, the “pre-steady-state target cleavage rate” value was 0.645 ± 0.17.

Consider UACACUGUCACCUUCUCUCUGAGAUAUUGA, for which the “pre-steady-state target cleavage rate” value came to 0.00257 ± 0.0056.

For UAGUGACAGUCCUUCUGUGAGAGAUUAUGA, the “pre-steady-state target cleavage rate” value is 0.000671 ± 0.0093.

For the sequence UAGUGUGUCACCUUCUCACUGAGAUUUUGA, the “pre-steady-state target cleavage rate” value was 0.000731 ± 0.015.

Turning to “UACACUGUCACCUUCUCUGAGUCUAAUUGA [g10:g28:cont:t1A]”, the “pre-steady-state target cleavage rate” value is 0.000914 ± 0.011.

In the case of UAGUGACUCACCUUCUCUCACAGAUUAACA, the “pre-steady-state target cleavage rate” value was 0.00108 ± 0.0078.

Consider UAGACUGUCACCUUCUCUGACUGAUUAAGA, for which the “pre-steady-state target cleavage rate” value was 0.000122 ± 0.014.

For UUCACUGUCACGCUUCUCUGAGAGAUUAACA, the “pre-steady-state target cleavage rate” value was 0.51 ± 0.02.

Regarding UAGUGACAGUGGAAGAGACUCAGUUUAACA, the “pre-steady-state target cleavage rate” value amounted to 0.000705 ± 0.0071.

For the sequence UAGUGACAGUCGUUCUCUGAGAGAUUAUCA, the “pre-steady-state target cleavage rate” value was determined as 0.00133 ± 0.0081.

Regarding UAGUGACAGACCUUCUGAGAGAGAUUAACA, the “pre-steady-state target cleavage rate” value is 0.00209 ± 0.0051.

Take UAGUGACAGUCCUUCUCUGACUCAUUAAGA: the “pre-steady-state target cleavage rate” value stood at 0.000371 ± 0.02.

Turning to UAGUGACACACCAACUCUGAGAGAUUAUGA, the “pre-steady-state target cleavage rate” value is 0.000459 ± 0.012.

Take UAGUGACUCACCUUCUGACAGAGAUAUUGA: the “pre-steady-state target cleavage rate” value amounted to 0.000291 ± 0.024.

UACACUGUCACCUUCUCUGAGUGAUUAUGA: the “pre-steady-state target cleavage rate” value was 0.00384 ± 0.0056.

UAGUCUGACACCUUGUCUGAGAGAUUAACA: the “pre-steady-state target cleavage rate” value was determined as 0.164 ± 0.022.

Consider UAGUGACAGACCUUCUCUGAGUGUUUAACA, for which the “pre-steady-state target cleavage rate” value came out at 0.00143 ± 0.0073.

For UUCACUGUCAACUUCUCUGAGAGAUUAACA, the “pre-steady-state target cleavage rate” value is 0.668 ± 0.028.

Take UAGUGAGUCUGGUUCUCUGAGAGAUUAUGA: the “pre-steady-state target cleavage rate” value worked out at 0.000116 ± 0.068.

With UAGACUGUCACCUUCUCACAGAGAUUAAGA, the “pre-steady-state target cleavage rate” value came out at 0.00249 ± 0.0032.

Turning to UAGUGACAGACCUUCUCUGAGUAGAUUAACA, the “pre-steady-state target cleavage rate” value was found to be 0.00111 ± 0.0099.

In the case of UAGUGACAGUGGAAGAGAGAGACAUUAACA, the “pre-steady-state target cleavage rate” value was found to be 0.000216 ± 0.04.

In the case of UAGUGACAGUGGCUCUCUGAGAGAUUAACA, the “pre-steady-state target cleavage rate” value was found to be 0.000165 ± 0.02.

Turning to UAGACUGUUACCUUCUCUGAGAGAUUAACA, the “pre-steady-state target cleavage rate” value turned out to be 0.745 ± 0.039.

In the case of UUUCACUGUCACCUUCUCUGAGAGAUUAACA, the “pre-steady-state target cleavage rate” value was found to be 0.415 ± 0.04.

Consider UAGUGACAGUCCUUCUCUGAGAGAUUUUGA, for which the “pre-steady-state target cleavage rate” value came to 0.000247 ± 0.018.

For UAGUGAGUCACCAACUCUGAGAGAUAUUGA, the “pre-steady-state target cleavage rate” value was 0.00101 ± 0.0093.

Regarding UAGUGACAGUCGAUCUCUGAGAGAUUAACA, the “pre-steady-state target cleavage rate” value came out at 0.00123 ± 0.0043.

UAGUGACUCACCUUCUCUCAGAGAUAAACA: the “pre-steady-state target cleavage rate” value was determined as 0.0156 ± 0.0032.

UUCACUGUCAGCUUCUCUGAGAGAUUAUCA: the “pre-steady-state target cleavage rate” value stood at 0.24 ± 0.027.

With UAGUGACAGACCUUCUGAGAGAGAUUAAGA, the “pre-steady-state target cleavage rate” value stood at 0.000479 ± 0.017.

Regarding UAGUGCGUCACCUUCUCUGAGAGAUUAACA, the “pre-steady-state target cleavage rate” value came to 0.623 ± 0.04.

For “UAGUGAGUCACCUUCUGACUCUCUAAUUGA [g15:g24:cont:t1A]”, the “pre-steady-state target cleavage rate” value came out at 0.00048 ± 0.02.

In the case of UAGUGACAGACCUUCUGCUGAGAGAUUAACA, the “pre-steady-state target cleavage rate” value is 0.000242 ± 0.024.

Regarding UAGUGACAGUCCAUCUCUGAGAGUUUAACA, the “pre-steady-state target cleavage rate” value was found to be 0.00295 ± 0.0034.

With UAGACUGUCACGUUCUCUGAGAGAUUUUGA, the “pre-steady-state target cleavage rate” value came to 0.000602 ± 0.011.

As for UAGUGACAGUGCUUCUCUGAGAGAAUUACA, the “pre-steady-state target cleavage rate” value turned out to be 0.000243 ± 0.021.

For the sequence UAGUGACAGUGGAACUCUGAAGAUUAACA, the “pre-steady-state target cleavage rate” value was 0.000452 ± 0.026.

As for UAGUGACAGUGGAUCUCUGACACAUUAACA, the “pre-steady-state target cleavage rate” value turned out to be 0.000143 ± 0.023.

With UAGACUGUCACCUUCUCUGACUCAUAUUGA, the “pre-steady-state target cleavage rate” value is 0.000136 ± 0.016.

Turning to UAGACUGUCACCUUCUCUCUCAGAUUAAGA, the “pre-steady-state target cleavage rate” value was found to be 0.000138 ± 0.017.

Regarding UAGACUGUCACCUUCUCUGAGUGAUUAUGA, the “pre-steady-state target cleavage rate” value stood at 0.000903 ± 0.0058.

With UAGUGACAGAGCAUCUCUGAGAGAUUAACA, the “pre-steady-state target cleavage rate” value was determined as 0.00106 ± 0.0054.

For UAGUGACAGUCGUUGUCUGAGAGAUUAACA, the “pre-steady-state target cleavage rate” value came to 0.000545 ± 0.01.

As for UAGUGACAGUCCUUCUCUGAGAGUUUAUCA, the “pre-steady-state target cleavage rate” value was determined as 0.00111 ± 0.0049.

Take UAGUGACACACCUUCUCUGAGGAUUAACA: the “pre-steady-state target cleavage rate” value was 0.00258 ± 0.0044.

Take UAGUGACAGUGGAAGAGACAGAGAUUUAACA: the “pre-steady-state target cleavage rate” value was found to be 0.000218 ± 0.032.

In the case of UAGUCUGUCACCUUGACUGAGAGAUUAUGA, the “pre-steady-state target cleavage rate” value was determined as 0.000804 ± 0.008.

Turning to UAGUGACAGUGGUUCUCUGUGACAUUAACA, the “pre-steady-state target cleavage rate” value came to 0.000153 ± 0.024.

With UAGUGACAGUGGAUUUCUGAGAGAUUAACA, the “pre-steady-state target cleavage rate” value came out at 0.000104 ± 0.024.

Regarding UAGUGUCAGACCUUCUCUGAGAGAUUUUGA, the “pre-steady-state target cleavage rate” value was determined as 0.000567 ± 0.013.

As to UAGUGACACUCCUUCUCUGAGAGAUAUUGA, the “pre-steady-state target cleavage rate” value was found to be 0.00274 ± 0.0042.

For the sequence UAGUGACUCUCCUUCUCUGAGAGAUUUUGA, the “pre-steady-state target cleavage rate” value came out at 0.000935 ± 0.0086.

On to UAGUGAGUCACCUUCUCUGAGUCAUUAUGA, for which the “pre-steady-state target cleavage rate” value came to 0.00164 ± 0.0065.

On to UAGUGAGUGUGCUUCUCUGAGAGAUUAUGA, for which the “pre-steady-state target cleavage rate” value was 0.00138 ± 0.0051.

As for UAGUGACUCACCUUCUCUGAGUGAUUAACA, the “pre-steady-state target cleavage rate” value was found to be 0.0244 ± 0.0052.

Regarding UAGUGACAGUGGAAGAGACUCAGAUUUACA, the “pre-steady-state target cleavage rate” value is 0.000174 ± 0.011.

UAGUGUGUCACCUUCUCUGACAGAUUUUGA: the “pre-steady-state target cleavage rate” value was found to be 0.00198 ± 0.0068.

With UAGUGACAGACCUUCUCUGAGACAUUUUGA, the “pre-steady-state target cleavage rate” value is 0.000453 ± 0.018.

In the case of UAGUGAGUCACCUUCUCUGAGACAUAUUGA, the “pre-steady-state target cleavage rate” value turned out to be 0.00295 ± 0.0039.

For UUCACUGAUCACCUUCUCUGAGAGAUUAACA, the “pre-steady-state target cleavage rate” value stood at 0.653 ± 0.052.

Turning to AUCACUGUCACCUUCUCUGAGACUAUAAGA, the “pre-steady-state target cleavage rate” value came out at 0.0016 ± 0.0042.

Turning to UAGUGACAGUGGAAGAGACAGAGGAUUAACA, the “pre-steady-state target cleavage rate” value was 0.000625 ± 0.011.

As to UAGUGAGUCACCUUCUGACAGAGAUUAACA, the “pre-steady-state target cleavage rate” value was 0.00116 ± 0.01.

On to UAGUGACAGUCGUUCUCUGAGAGAUUUACA, for which the “pre-steady-state target cleavage rate” value is 0.000612 ± 0.015.

With UAGUGACAGUCCAUCUCAGAGAGAUUAACA, the “pre-steady-state target cleavage rate” value was 0.00153 ± 0.0063.

Regarding UAGUGACACACCUUCUCUGAGAUGAUUAACA, the “pre-steady-state target cleavage rate” value was 0.00345 ± 0.0036.

Regarding UAGUCUGUGACCUUCUGUGAGAGAUUAACA, the “pre-steady-state target cleavage rate” value is 0.399 ± 0.028.

On to UAGACUGUCACCUUCUCUGACUCAUUAAGA, for which the “pre-steady-state target cleavage rate” value was found to be 0.000459 ± 0.01.

On to UAGUGACAGUCCUUCUCAGAGAGUUUAACA, for which the “pre-steady-state target cleavage rate” value is 0.0044 ± 0.0027.

In the case of UAGUGACAGACCUUCUCUGAGUGAUUAAGA, the “pre-steady-state target cleavage rate” value was determined as 0.000858 ± 0.0077.

Regarding AUCACUCUCACCUUCUCUGAGAGAUUAACA, the “pre-steady-state target cleavage rate” value turned out to be 0.551 ± 0.029.

Source of the values: the supplement of paper PMC10338343.
